Measurements published in PMC12380113.

Target: T1, CD34 (orbital fibroblast lysate) (UniProt P28906)
T1 sequence (looked up, limits assumed): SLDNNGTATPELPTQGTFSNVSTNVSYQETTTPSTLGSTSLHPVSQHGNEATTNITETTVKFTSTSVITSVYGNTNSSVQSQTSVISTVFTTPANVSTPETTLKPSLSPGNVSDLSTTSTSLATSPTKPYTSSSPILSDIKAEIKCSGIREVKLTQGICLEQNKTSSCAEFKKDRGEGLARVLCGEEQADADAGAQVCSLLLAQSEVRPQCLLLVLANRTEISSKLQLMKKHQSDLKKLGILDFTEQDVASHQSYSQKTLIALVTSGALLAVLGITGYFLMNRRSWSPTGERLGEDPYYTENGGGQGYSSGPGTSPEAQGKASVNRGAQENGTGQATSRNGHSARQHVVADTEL
Assay: pull-down with immunoblot
Settings: 150 pmol aptamer, 100 ug lysate protein, 20% FBS and 0.1 mg/mL salmon sperm DNA block, 4 C overnight; flow cytometry at 4 C, 1 h; pull-down lysis buffer 5 mM MgCl2; protein in an extract; single-stranded DNA

## CAGCACCGTCAACTGAATCTCATTGCGGCGTCCGGCTGGACGTTATTGTTGGAACCGTGATGCGATGGAGATGT [CD34 Apt (biotin)]
  binding result: binds

For at least one entry, the source does not settle the construct or the ends of the probe. Where cells or extracts were used, other partners may take part. Protein sequences can lack the tags named with them.
